In PubChem BioAssay AID1347075 (National Center for Advancing Translational Sciences (NCATS), 2019):
Out of some 400,000 compounds screened, about 5,500 (1.4%) were called active. The shares of active, inactive and inconclusive entries below differ from those in the screen. The call rests on the fitted dose curve; in most records, active means well fitted cell-killing curve with a large enough effect; inconclusive means small, poorly fitted or top-dose-only effect, or effect the other way; inactive means flat fitted curve, though single readings scatter. Where the call is inconclusive, the potency comes from a doubtful curve fit.

Test: qHTS assay for MDR1-selective chemotherapeutics: Primary screen using the parental adenocarcinoma cell KB-3-1; further: nearly all actives have a fitted effect of over 60% in size
Details: KB-3-1 viability, CellTiter-Glo ATP luminescence, 72 h; activity change, negative = cytotoxic: at 46.1 µM (top of the series)
Outline: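 Cytotoxicity measured as CellTiter-Glo luminescence after 72 h at 37 C. Compound titrations were pinned onto drug-naive KB-3-1 parental adenocarcinoma cells grown in DMEM with 10% FBS, and normalized data fitted to concentration-response curves.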
On the % scale 0 is the no-effect control and ±100 the full control effect; potency means the concentration at half of the fitted maximal effect.

| Structure (SMILES) | Potency | activity change, negative = cytotoxic |
| --- | --- | --- |
| CC(=O)NC(CC(C)C)C(=O)NC(CO)C(=O)NC(CCC(=O)O)C(=O)NC(C)C(=O)NC(CC(C)C)C(N)=O (stereo not drawn) | inactive | – |
| O=C(NCCC1=CCCCC1)c1cc(COc2ccc(F)cc2Cl)on1 | inconclusive: 18.4 µM [cytotoxic, partial curve, poor fit] | – |
| Cc1ccc(S(=O)(=O)N(CC(O)Cn2c3ccccc3c3ccccc32)c2cccc(C(=O)NCCO)c2)cc1 (stereo not drawn) | inconclusive: 29.1 µM [cytotoxic, single point] | – |
| Cc1ccc(S(=O)(=O)N2CCCC2CNC(=O)C(=O)NCc2ccc3c(c2)OCO3)cc1 (stereo not drawn) | inactive | – |
| COc1c(C)cc(NS(=O)(=O)c2ccc3c(c2)OCCO3)cc1C | inconclusive: 8.2 µM [cytotoxic, partial curve] | – |
| Cc1cnc2ccc(F)cc2c1 | inconclusive: 29.1 µM [cytotoxic, single point] | – |
| CCCc1nc2ccccc2c(=O)n1/N=C/c1ccc(O)c(O)c1 | inconclusive: 29.1 µM [cytotoxic, single point] | – |
| Cc1ccc2[nH]c(=O)c(CN(CCc3ccccc3)C(c3nnnn3Cc3ccco3)C(C)C)cc2c1 (stereo not drawn) | inconclusive: 29.1 µM [cytotoxic, single point] | – |
| Cc1ccccc1NC(=O)c1ccccc1OCC(=O)Nc1ccc(Br)cc1 | inactive | – |
| C[C@@H]1CN([C@H](C)CO)C(=O)CCCn2nncc2CO[C@@H]1CN(C)S(=O)(=O)c1cccs1 | inactive | – |
| CC(=O)N(C1=C(N)C(=O)c2ccccc2C1=O)c1ccccc1 | inconclusive: 29.1 µM [cytotoxic, single point] | – |
| COc1ccc(/C=C2\C(=O)NC(=O)c3ccccc32)cc1OC | inactive | – |
| O=C(NC1CC1)c1sc2cc(Cl)ccc2c1Cl | inactive | – |
| COc1ccccc1-c1nnc(SC(C(=O)c2c[nH]c3ccccc23)c2ccccc2)n1C (stereo not drawn) | inconclusive: 29.1 µM [cytotoxic, single point] | – |
| CC(=O)Nc1cc(-c2ccc(N3CCN(C)CC3)cc2)cn2c(-c3ccc(F)c(Cl)c3)cnc12 | inconclusive: 29.1 µM [cytotoxic, single point] | – |
| O=S(=O)(Nc1ccc(C(O)(C(F)(F)F)C(F)(F)F)cc1)c1ccc(Cl)c2nonc12 | inconclusive: 29.1 µM [cytotoxic, single point] | – |
| Cc1ccc(C(=O)COC(=O)C2C3C=CC(C3)C2C(=O)OCC(=O)c2ccc(C)c(C)c2)cc1C (stereo not drawn) | inconclusive: 29.1 µM [cytotoxic, single point] | – |
| O=C(Nc1ncccn1)C1=C(O)c2ccccc2S(=O)(=O)N1Cc1ccccc1 | inconclusive: 0.326 µM [cytotoxic, full curve, poor fit] | – |
| CC(O)CNc1ccc(-c2nn(C)c(=O)c3ccccc23)cc1[N+](=O)[O-] (stereo not drawn) | active: 9.2 µM | – |
| NC(=O)c1ccc(NC(=O)c2cncn2-c2ccccc2)cc1 | inconclusive: 25.9 µM [rising, single point] | – |
| COc1ccc(N2CCN(c3cc(C)c4cccc(C)c4n3)CC2)cc1 | inconclusive: 32.6 µM [cytotoxic, partial curve, poor fit] | – |
| CCCC(=O)n1nc(-c2ccco2)nc1SCc1ccccc1 | inactive | – |
| Cc1onc(-c2ccccc2)c1C(=O)Nc1sc2c(c1C#N)CCC2 | inconclusive: 6.51 µM [cytotoxic, partial curve, poor fit] | – |

| Structure (SMILES) | Potency | activity change, negative = cytotoxic |
| --- | --- | --- |
| CCCCCCCCN1C(=O)[C@H](CC(=O)NCC23CC4CC(CC(C4)C2)C3)C[C@@]2(C(=O)OC)CC(C)(C)CC=C12 | inconclusive: 29.1 µM [cytotoxic, single point] | – |
| CCCCCCN1CCN(C2CN(Cc3ccc([N+](=O)[O-])cc3)S(=O)(=O)C2)CC1 (stereo not drawn) | inactive | – |
| COc1ccc(-n2nc(C(=O)NCC(=O)N3CCN(c4ccccc4OC)CC3)c3ccccc3c2=O)cc1OC | inactive | – |
| COc1ccccc1-c1nnc(SCC(=O)c2ccc(C3CCCCC3)cc2)n1Cc1ccco1 | inconclusive: 20.6 µM [cytotoxic, partial curve, poor fit] | – |
| COc1ccc2c(CC(=O)NCCN3C(=O)S/C(=C\c4cccnc4)C3=O)coc2c1 | inactive | – |
| O=C(N/N=C/c1ccc(Br)s1)c1ccc([N+](=O)[O-])cc1 | inconclusive: 25.9 µM [cytotoxic, single point] | – |
| CCN(CC)S(=O)(=O)c1cc(NC(=O)C(C)N(C)CC(=O)Nc2c(C)cccc2C)ccc1C (stereo not drawn) | inconclusive: 6.51 µM [cytotoxic, single point] | – |
| CC(C)CCNc1nc(N2CCCC2)c2c(c1C#N)CCN(C)C2 | inconclusive: 29.1 µM [cytotoxic, single point] | – |
| Nc1ccc2c(c1)C(=O)C(=O)c1ccccc1-2 | active: 2.91 µM | – |
| Cc1nnc2c(NCC(C)c3ccccc3)nc3ccccc3n12 (stereo not drawn) | inconclusive: 18.4 µM [rising, partial curve, poor fit] | – |
| COc1ccc(-n2c(C)cc(C(=O)CN3C(=O)NC4(CCc5ccccc54)C3=O)c2C)cc1 (stereo not drawn) | inconclusive: 23.1 µM [cytotoxic, single point] | – |
| Cc1c(C(=O)Nc2ccc3c(c2)OCO3)sc2nc(-c3ccccc3)cn12 | inactive | – |
| CCOC(=O)c1ccc(NC(=O)c2ccc(NS(C)(=O)=O)cc2)cc1 | inactive | – |
| O=C(CCC(=O)Nc1ccc(Br)cc1)N/N=C/c1cc([N+](=O)[O-])ccc1O | inconclusive: 29.1 µM [cytotoxic, single point] | – |
| CCOC(=O)c1c(C)oc2ccc(N(C(C)=O)S(=O)(=O)c3c(C)cc(C)cc3C)cc12 | active: 23.1 µM | – |
| O=C(NCc1ccco1)c1cnn2c1NC(c1ccc(Br)cc1)CC2C(F)(F)F (stereo not drawn) | inconclusive: 20.6 µM [cytotoxic, single point] | – |
| CCN(CC)CCN1C(=O)C2C(C(=O)Nc3cccc(C)c3)C3C=CC2(O3)C1C(=O)NC1CCCC(C)C1C (stereo not drawn) | inactive | – |
| COC(=O)CCc1c(C)c(C(=O)c2cc(OC)c(OC)c(OC)c2)c2ccccn12 | inactive | – |
| CNc1ccccc(C(=O)/C=C/c2ccccc2OC)c1=O | inconclusive: 20.6 µM [cytotoxic, single point] | – |
| COc1ccc(Oc2nc3c(c(=O)n(C)c(=O)n3C)n2Cc2ccc(Cl)cc2Cl)cc1 | inactive | – |
| O=Cc1ccc(-c2ccccc2C(=O)O)o1 | inactive | – |
| CCC(=O)N1CCc2cc(Br)cc(S(=O)(=O)CCC(=O)Nc3ccc(Cl)cc3)c21 | inactive | – |
| NC1=NC[C@H](c2ccccc2)N1CCCCC1CCCCC1 | inconclusive: 29.1 µM [cytotoxic, single point] | – |

| Structure (SMILES) | Potency | activity change, negative = cytotoxic |
| --- | --- | --- |
| CC(C)c1ccc(N2C=Nc3ccc(C(C)C)cc3C2)cc1 | inconclusive: 9.2 µM [cytotoxic, partial curve, poor fit] | – |
| Cc1ccc(C(C)C)c(OCC(=O)N/N=C/C2CCCCC2)c1 | inactive | – |
| CC(=O)N1c2ccc(S(=O)(=O)N3CCCC(C(=O)NCc4ccc(Cl)cc4)C3)cc2CC1C (stereo not drawn) | inconclusive: 20.6 µM [cytotoxic, partial curve, poor fit] | – |
| COCCNC(=O)COc1cccc2c1OC(C)(C)C2 | – | inconclusive: 0.019% |
| Nc1ccc(-c2cnc(N)c(C(=O)c3cccnc3)n2)cn1 | inconclusive: 20.6 µM [cytotoxic, single point] | – |
| COc1ccccc1Nc1ccc(NC(=O)c2cccc([N+](=O)[O-])c2C)cc1 | active: 18.4 µM | – |
| Cc1nn(-c2ccccn2)c2nc(-c3cccs3)cc(C(=O)NCc3ccco3)c12 | inconclusive: 29.1 µM [cytotoxic, single point] | – |
| O=C(Cc1ccccc1)N/N=C/c1cc(Br)cc(Cl)c1O | inconclusive: 14.6 µM [cytotoxic, partial curve] | – |
| O=C(CN1C(=O)NC2NC(=O)NC21)N/N=C/c1ccc(F)cc1 (stereo not drawn) | inactive | – |
| Cn1c2ccccc2c(=O)c2cc(C#CC3(O)CCCCC3)ccc21 | inconclusive: 32.6 µM [cytotoxic, single point] | – |
| CC(C)(C)c1ccc(NC(=O)N2CCCN(c3ccc([N+](=O)[O-])cn3)CC2)cc1 | inconclusive: 29.1 µM [cytotoxic, single point] | – |
| COC(=O)N/N=C/c1cn(CCCOc2ccccc2)c2ccccc12 | inconclusive: 16.4 µM [cytotoxic, single point] | – |
| CCOc1ccc(CNC(=O)C2=Cc3cccc(OC)c3OC2)cc1 | inactive | – |
| CC1(C)c2[nH]c3ccccc3c2C[C@@H]2C(=O)N(Cc3ccccc3F)C(=O)N21 | inconclusive: 0.366 µM [cytotoxic, partial curve, poor fit] | – |
| COc1cc(C(=O)COC(=O)c2cc([N+](=O)[O-])ccc2N2CCOCC2)ccc1OC(F)F | active: 20.6 µM | – |
| Nc1nc(N)c2cc(Sc3cccc(C(F)(F)F)c3)ccc2n1 | inconclusive: 18.4 µM [cytotoxic, single point] | – |
| COc1cccc(-c2sc3ccc(OC)cc3c2C#CC2(O)CCCCC2)c1 | inconclusive: 0.259 µM [cytotoxic, partial curve, poor fit] | – |
| CCOC(=O)[C@H]1[C@H]2COc3ccc(Br)cc3[C@@H]2N2C(=O)CN(Cc3ccc(C)cc3)C(=O)[C@@]12C | inconclusive: 29.1 µM [cytotoxic, single point] | – |
| c1coc(CNc2c3c(nc4ncnn24)CCCC3)c1 | inactive | – |
| CCN(CC(=O)NC1CCS(=O)(=O)C1)c1ccc(S(C)(=O)=O)cc1[N+](=O)[O-] (stereo not drawn) | inactive | – |
| COc1cccc(NC(=O)C2CCN(C(=O)[C@@H]3Cc4ccccc4CN3)CC2)c1 | inactive | – |
| COc1ccc(CCNC(=O)c2ccc(CS(=O)(=O)c3ccc(C)cc3)o2)cc1OC | inconclusive: 23.1 µM [cytotoxic, single point] | – |

Record cards, as listed above:
`c1coc(CNc2c3c(nc4ncnn24)CCCC3)c1` reads Potency: inactive
`Cc1ccc(C(C)C)c(OCC(=O)N/N=C/C2CCCCC2)c1` reads Potency: inactive
`COc1ccc(-n2c(C)cc(C(=O)CN3C(=O)NC4(CCc5ccccc54)C3=O)c2C)cc1` (stereo not drawn) reads Potency: inconclusive: 23.1 µM [cytotoxic, single point]
